{
  "source": "paper PMC4815073",
  "about": "“Targeting of tubulin polymerization and induction of mitotic blockage by Methyl 2-(5-fluoro-2-hydroxyphenyl)-1H-benzo[d]imidazole-5-carboxylate (MBIC) in human cervical cancer HeLa cell” (Journal of Experimental & Clinical Cancer Research : CR, 2016)",
  "key": {"HCT-116 cells": {"system": "HCT-116 cells", "assay": "MTT cytotoxicity assay, HCT-116", "type": "cell-based", "settings": "Homo sapiens, HCT-116, 48 hours", "from_the_text": "(§1) The human cervical cancer cell-line, HeLa (CCL-2.2; ATCC, Manassas, VA), HCT-116 (CCL-247; ATCC, Manassas, VA), A549 (CCL-185; ATCC, Manassas, VA), HepG-2 (HB-8065; ATCC, Manassas, VA) and WRL-68 (CL-48; ATCC, Manassas, VA), were obtained from American Type Culture Collection (ATCC). HeLa, A549, HepG2 and WRL68 cells were maintained in Dulbecco’s Modified Eagle Medium (DMEM, Life Technologies, Inc, Rockville, MD). HCT-116 was obtained in McCoy’s 5a Medium Modified (Life Technologies, Inc, Rockville, MD) supplemented with 10 % fetal bovine serum and 1 % penicillin/streptomycin. Cells were incubated at 37 °C in a humidified cell culture 5 % CO2 incubator. Cells were passaged until reaching 70-80-% confluency for experimental purposes.\n(§2) Cytotoxicity of MBIC was estimated by MTT assay. Briefly, 1 × 10^4 cells/well were seeded in a 96-well plate and incubated at 37 °C in 5 % CO2. After 24 h, cells were treated with different concentrations (0.02, 0.04, 0.1, 0.2, 0.4, 0.8, 1.5, 3, 6, 12, 25, 50 μM) of MBIC. 0.01 % DMSO was used as vehicle control. Cells were incubated for 24 and 48 h at 37 °C. […] The colorimetric assay was quantified at 570 nm wavelength using Chameleon V microplate reader (Hidex, Turku, Finland). The anti-proliferation activity of MBIC was expressed as an IC50 value. The percentage of cell viability was calculated as described previously."}, "HepG-2 cells": {"system": "HepG-2 cells", "assay": "MTT cytotoxicity assay, HepG-2", "type": "cell-based", "settings": "Homo sapiens, HepG2, HepG-2, 24 hours", "from_the_text": "as §1, §2"}},
  "data": [
    {"smiles": "COc1cc2c(c(OC)c1OC)-c1ccc(OC)c(=O)cc1[C@@H](NC(C)=O)CC2", "note": "[Colchicine]", "values": [
      {"measurement": "IC50", "setting": "HCT-116 cells", "result": "3.44 ± 0.2", "unit": "µM"},
      {"measurement": "IC50", "setting": "HepG-2 cells", "result": "8.36 ± 0.9", "unit": "µM"}
    ]}
  ]
}
